Data from article PMC4887207, “Viral hijacking of a replicative helicase loader and its implications for helicase loading control and phage replication” (eLife, 2016).
Results are given in words; binding and its absence hold for the method and conditions named. Some entries that bind do so weakly or less than the wild type.

How the values were obtained:
[1] = biological target: T1, full-length Staphylococcus aureus DnaI (Staphylococcus aureus) (UniProt Q3ZUA6); test: pull-down; amylose pull-down, His6MBP-tagged protein as bait (10 µM), untagged protein as prey (20 µM); without ATP or nucleotide where stated (Figures 2C, 4C), ATP not told for the other panels; 20 mM HEPES-KOH pH 7.5, 100 mM NaCl, 5 mM MgCl2, 10% glycerol, 1 mM DTT, 25°C; SDS-PAGE; both purified
T1 sequence: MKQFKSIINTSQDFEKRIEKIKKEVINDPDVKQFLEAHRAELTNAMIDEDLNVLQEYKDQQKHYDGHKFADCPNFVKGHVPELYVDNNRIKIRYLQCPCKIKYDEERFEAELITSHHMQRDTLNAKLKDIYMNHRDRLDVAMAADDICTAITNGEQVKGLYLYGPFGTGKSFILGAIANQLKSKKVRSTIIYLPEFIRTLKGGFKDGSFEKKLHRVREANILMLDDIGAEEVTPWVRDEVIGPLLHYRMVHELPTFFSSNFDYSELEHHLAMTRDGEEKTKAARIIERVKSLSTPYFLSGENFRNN

[2] = biological target: T1, full-length Staphylococcus aureus DnaI (Staphylococcus aureus); test: SEC; analytical gel filtration, 5/150 GL Superdex 200; 20 mM Tris-HCl pH 8.0, 200 mM NaCl, 5% glycerol, 5 mM MgCl2, 1 mM BME, 10 mM ATP; 7 µM SaDnaC, 14 µM SaDnaI, 14 µM 77ORF013, 30 µM 77ORF104; peak fractions on SDS-PAGE; both purified
[3] = biological target: T1, full-length Staphylococcus aureus DnaI (Staphylococcus aureus); test: pull-down; amylose pull-down of His6MBP-77ORF104 with SaDnaI and SaDnaC in the presence of nucleotide; not shown; both purified

binding [1]: binds
binding [2]: binds
binding [3]: binds
B1: SaDnaC replicative helicase (natural protein, Staphylococcus aureus, UniProt Q9AQH7 1-466, looked up)
chain: MDRMYEQNQMPHNNEAEQSVLGSIIIDPELINTTQEVLLPESFYRGAHQHIFRAMMHLNEDNKEIDVVTLMDQLSTEGTLNEAGGPQYLAELSTNVPTTRNVQYYTDIVSKHALKRRLIQTADSIANDGYNDELELDAILSDAERRILELSSSRESDGFKDIRDVLGQVYETAEELDQNSGQTPGIPTGYRDLDQMTAGFNRNDLIILAARPSVGKTAFALNIAQKVATHEDMYTVGIFSLEMGADQLATRMICSSGNVDSNRLRTGTMTEEDWSRFTIAVGKLSRTKIFIDDTPGIRINDLRSKCRRLKQEHGLDMIVIDYLQLIQGSGSRASDNRQQEVSEISRTLKALARELKCPVIALSQLSRGVEQRQDKRPMMSDIRESGSIEQDADIVAFLYRDDYYNRGGDEDDDDDGGFEPQTNDENGEIEIIIAKQRNGPTGTVKLHFMKQYNKFTDIDYAHADMM
notes: Staphylococcus aureus replicative helicase DnaC (a DnaB-family helicase); also called S. aureus DnaC replicative helicase; host helicase; not shown: His6, N-terminal, cleaved; MBP, N-terminal, cleaved
